Results are given in words; binding and its absence hold for the method and conditions named. In cells and extracts the contact can be indirect.
Biological target: β-catenin (UniProt P35222)
Experiment: co-IP; exogenous Co-IP; mentioned only in the discussion, no figure and no conditions given

Amino acid sequences for entries named in this document (tags omitted).
UniProt P35222: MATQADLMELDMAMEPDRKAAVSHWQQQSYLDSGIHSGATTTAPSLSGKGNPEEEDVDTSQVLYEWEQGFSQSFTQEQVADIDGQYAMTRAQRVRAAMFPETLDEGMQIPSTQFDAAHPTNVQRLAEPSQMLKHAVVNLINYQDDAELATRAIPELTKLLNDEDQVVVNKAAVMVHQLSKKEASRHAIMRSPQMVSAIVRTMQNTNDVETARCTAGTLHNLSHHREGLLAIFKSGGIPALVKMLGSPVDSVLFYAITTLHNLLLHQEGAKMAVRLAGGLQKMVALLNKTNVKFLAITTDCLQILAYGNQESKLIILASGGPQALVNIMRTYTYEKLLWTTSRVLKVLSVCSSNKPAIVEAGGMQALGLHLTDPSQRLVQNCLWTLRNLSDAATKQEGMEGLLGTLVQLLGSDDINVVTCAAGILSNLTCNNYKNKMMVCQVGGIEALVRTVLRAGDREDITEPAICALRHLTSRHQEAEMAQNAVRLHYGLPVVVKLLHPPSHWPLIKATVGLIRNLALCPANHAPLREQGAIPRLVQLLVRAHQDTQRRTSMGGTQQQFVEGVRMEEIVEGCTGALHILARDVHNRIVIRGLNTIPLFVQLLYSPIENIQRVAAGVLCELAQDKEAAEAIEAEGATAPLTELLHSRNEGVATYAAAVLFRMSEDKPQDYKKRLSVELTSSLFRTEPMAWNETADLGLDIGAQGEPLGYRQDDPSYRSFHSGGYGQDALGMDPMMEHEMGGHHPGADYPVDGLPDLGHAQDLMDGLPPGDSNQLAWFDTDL

binding: no binding
B1: Motile sperm domain-containing protein 2 (MOSPD2) (protein, UniProt Q8NHP6 1-518)
chain: MAENHAQNKAKLISETRRRFEAEYVTDKSDKYDARDVERLQQDDNWVESYLSWRHNIVDETLKMLDESFQWRKEISVNDLNESSIPRWLLEIGVIYLHGYDKEGNKLFWIRVKYHVKDQKTILDKKKLIAFWLERYAKRENGKPVTVMFDLSETGINSIDMDFVRFIINCFKVYYPKYLSKIVIFDMPWLMNAAFKIVKTWLGPEAVSLLKFTSKNEVQDYVSVEYLPPHMGGTDPFKYSYPPLVDDDFQTPLCENGPITSEDETSSKEDIESDGKETLETISNEEQTPLLKKINPTESTSKAEENEKVDSKVKAFKKPLSVFKGPLLHISPAEELYFGSTESGEKKTLIVLTNVTKNIVAFKVRTTAPEKYRVKPSNSSCDPGASVDIVVSPHGGLTVSAQDRFLIMAAEMEQSSGTGPAELTQFWKEVPRNKVMEHRLRCHTVESSKPNTLTLKDNAFNMSDKTSEDICLQLSRLLESNRKLEDQVQRCIWFQQLLLSLTMLLLAFVTSFFYLLYS

— paper PMC9338958
